No constants are given. Whether binding was seen depends on the method and setting. Binding seen in cells or lysates may run through a third protein.
Biological target: T1, mCherry-RILPL1 (UniProt Q5EBL4)
T1 sequence: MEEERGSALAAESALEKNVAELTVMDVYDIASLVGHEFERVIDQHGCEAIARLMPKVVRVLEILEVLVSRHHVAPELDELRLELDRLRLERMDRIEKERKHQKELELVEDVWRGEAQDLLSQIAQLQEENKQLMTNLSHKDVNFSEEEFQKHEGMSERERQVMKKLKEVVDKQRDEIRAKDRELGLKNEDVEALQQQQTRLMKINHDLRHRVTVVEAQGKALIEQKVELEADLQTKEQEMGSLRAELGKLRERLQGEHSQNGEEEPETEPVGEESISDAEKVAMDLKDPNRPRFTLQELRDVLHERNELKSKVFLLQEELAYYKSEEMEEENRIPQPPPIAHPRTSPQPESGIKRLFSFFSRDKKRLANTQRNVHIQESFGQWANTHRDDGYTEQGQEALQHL
Test: co-IP; HEK293FT cells transfected with 3xflag-LRRK2 and mCherry-RILPL1 for 24 h, treated or not with LLOME (2 h); lysates in IP buffer (20 mM Tris-HCl pH 7.5, 150 mM NaCl, 1 mM EDTA, 0.3% Triton X-100, 10% glycerol); RFP-Trap magnetic beads 1 h at 4°C; washes with 300 mM NaCl; immunoblot

For “dynein-light intermediate chain (DLIC) (human (endogenous in HEK293FT))”, the binding was “no binding”.
